Source: paper doi:10.1101/2025.11.27.691040 (bioRxiv, 2025)
Results are given in words; binding and its absence hold for the method and conditions named. For part of these data: In cells and extracts the contact can be indirect. Some results given as binding are weak or reduced against the parent protein; the word gives no strength. Tags and fused reporters may be left off the sequences shown.

Key:
[1] = target: T1, AtCKA1 (residues 76-409) with C-terminal 6xHis tag (Arabidopsis thaliana) (UniProt Q08467); test: pull-down
T1 sequence: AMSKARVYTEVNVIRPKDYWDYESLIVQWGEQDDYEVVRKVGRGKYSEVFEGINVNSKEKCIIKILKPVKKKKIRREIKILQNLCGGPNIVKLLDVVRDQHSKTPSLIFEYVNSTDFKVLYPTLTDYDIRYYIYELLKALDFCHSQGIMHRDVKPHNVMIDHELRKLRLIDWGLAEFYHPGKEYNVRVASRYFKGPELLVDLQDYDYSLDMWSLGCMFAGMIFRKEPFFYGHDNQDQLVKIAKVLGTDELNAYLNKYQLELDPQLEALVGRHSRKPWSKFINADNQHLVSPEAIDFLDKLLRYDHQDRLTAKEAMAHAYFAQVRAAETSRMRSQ

[2] = target: T1, AtCKA1 (residues 76-409) with C-terminal 6xHis tag (Arabidopsis thaliana); test: crystal structure
[3] = target: AtCKB1 (residues 95-287), untagged (Arabidopsis thaliana) (UniProt P40228); test: crystal structure
[4] = target: T2, AtVIH2, full-length, split-luciferase fusion (Arabidopsis thaliana) (UniProt F4J8C6); test: split reporter
T2 sequence: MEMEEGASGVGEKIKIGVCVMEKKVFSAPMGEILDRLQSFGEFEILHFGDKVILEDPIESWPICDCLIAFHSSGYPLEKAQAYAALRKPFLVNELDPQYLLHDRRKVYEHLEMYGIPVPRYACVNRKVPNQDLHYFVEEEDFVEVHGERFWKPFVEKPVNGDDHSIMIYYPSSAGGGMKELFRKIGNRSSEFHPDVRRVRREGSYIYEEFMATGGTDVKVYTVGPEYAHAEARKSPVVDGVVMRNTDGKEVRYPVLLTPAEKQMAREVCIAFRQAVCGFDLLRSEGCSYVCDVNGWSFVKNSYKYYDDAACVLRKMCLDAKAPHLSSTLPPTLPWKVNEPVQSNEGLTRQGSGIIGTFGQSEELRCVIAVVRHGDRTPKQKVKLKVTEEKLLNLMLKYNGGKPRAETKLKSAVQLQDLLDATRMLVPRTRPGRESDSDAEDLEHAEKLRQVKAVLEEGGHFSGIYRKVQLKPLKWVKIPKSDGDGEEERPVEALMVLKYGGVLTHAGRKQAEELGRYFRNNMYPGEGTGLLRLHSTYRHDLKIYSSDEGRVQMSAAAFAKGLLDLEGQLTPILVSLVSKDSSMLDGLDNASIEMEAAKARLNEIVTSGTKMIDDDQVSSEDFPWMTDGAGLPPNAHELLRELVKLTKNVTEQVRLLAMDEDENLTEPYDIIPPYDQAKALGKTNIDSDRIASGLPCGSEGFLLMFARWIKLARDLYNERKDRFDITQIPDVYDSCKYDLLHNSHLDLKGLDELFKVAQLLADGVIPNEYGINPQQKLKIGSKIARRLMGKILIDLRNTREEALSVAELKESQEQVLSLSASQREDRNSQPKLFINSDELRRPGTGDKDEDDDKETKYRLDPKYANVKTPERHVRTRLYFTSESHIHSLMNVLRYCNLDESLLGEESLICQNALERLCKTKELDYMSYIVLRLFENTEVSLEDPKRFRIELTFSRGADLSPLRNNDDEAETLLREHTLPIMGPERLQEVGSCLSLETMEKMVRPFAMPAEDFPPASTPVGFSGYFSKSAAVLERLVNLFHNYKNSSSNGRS

[5] = target: T1, AtCKA1 (residues 76-409) with C-terminal 6xHis tag (Arabidopsis thaliana); test: SEC-MALS

B1: AtCKB1 (residues 95-287), untagged (domain or fragment, Arabidopsis thaliana, UniProt P40228 95-287, looked up)
chain: DGEDTSWISWFCNLRGNEFFCEVDDDYIQDDFNLCGLSSLVPYYEYALDLILDVESSQGEMFTEEQNELIESAAEMLYGLIHARYILTSKGLAAMLDKYKNYDFGRCPRVYCCGQPCLPVGQSDLPRSSTVKIYCPKCEDIYYPRSKYQGNIDGAYFGTTFPHLFLMTYGHLKPAKATQNYVQRVFGFKLHKP
Question: For B1, which binding [1] is on record?
Answer: The binding was “binds”.

Question: And the binding [2]?
Answer: The binding was “binds”.

Question: What about the binding [3] of the same binder?
Answer: Its binding is “binds”.

B2: AtCKA1, full-length, split-luciferase fusion (enzyme, UniProt Q08467 37-409)
chain: PILRSSIVTPTARAVSEVSGCTTIDPDFLVEISDSNQTRAMSKARVYTEVNVIRPKDYWDYESLIVQWGEQDDYEVVRKVGRGKYSEVFEGINVNSKEKCIIKILKPVKKKKIRREIKILQNLCGGPNIVKLLDVVRDQHSKTPSLIFEYVNSTDFKVLYPTLTDYDIRYYIYELLKALDFCHSQGIMHRDVKPHNVMIDHELRKLRLIDWGLAEFYHPGKEYNVRVASRYFKGPELLVDLQDYDYSLDMWSLGCMFAGMIFRKEPFFYGHDNQDQLVKIAKVLGTDELNAYLNKYQLELDPQLEALVGRHSRKPWSKFINADNQHLVSPEAIDFLDKLLRYDHQDRLTAKEAMAHAYFAQVRAAETSRMRSQ
Question: B2 was tested. Which binding [4] did it give?
Answer: The binding was “binds”.

B3: Cluc-AtCKA4 (enzyme, UniProt O64816 56-432)
chain: ASLYRQHLRNQQQQHQQQQQSRVKEKSETLAQKIGKSIRRAGAPSKARVYADVNVVRPKDYWDYESLAVQWGVQDDYEVVRKVGRGKYSEVFEGIHATDNEKCVIKILKPVKKKKIKREIKILQNLCGGPNIVKLLDIVRDQQSKTPSLIFEHVNNKDFKVLYPTLSDYDVRYYIFELLKALDFCHSRGIMHRDVKPHNVMIDHEQRKLRLIDWGLAEFYHPGKEYNVRVASRYFKGPELLVDLQDYDYSLDLWSLGCMFAGMIFRKEPFFYGHDNYDQLVKIAKVLGTDELNAYLNKYRIELDPNLTSLVGRHSRKPWTKFINSENQHLAVPEAVDFVDKLLRYDHQERPTAKEAMAHPYFYPIRNAESSRTPRSQ
Question: Which binding [4] does the source give for B3 here?
Answer: The binding was “no binding”.

B4: AtCKA1 (residues 76-409) with C-terminal 6xHis tag (enzyme, UniProt Q08467 76-409)
chain: AMSKARVYTEVNVIRPKDYWDYESLIVQWGEQDDYEVVRKVGRGKYSEVFEGINVNSKEKCIIKILKPVKKKKIRREIKILQNLCGGPNIVKLLDVVRDQHSKTPSLIFEYVNSTDFKVLYPTLTDYDIRYYIYELLKALDFCHSQGIMHRDVKPHNVMIDHELRKLRLIDWGLAEFYHPGKEYNVRVASRYFKGPELLVDLQDYDYSLDMWSLGCMFAGMIFRKEPFFYGHDNQDQLVKIAKVLGTDELNAYLNKYQLELDPQLEALVGRHSRKPWSKFINADNQHLVSPEAIDFLDKLLRYDHQDRLTAKEAMAHAYFAQVRAAETSRMRSQ
Question: Which binding [5] does the source give for B4 here?
Answer: The binding was “no binding (tested: 5 mg/mL injected)”.
